We go through one molecule from patent US20250002583A1 (PERSONGEN BIOTHERAPEUTICS SUZHOU, published 2025).

No constants are given. Whether binding was seen depends on the method and setting. Some entries that bind do so weakly or less than the wild type.

The target of this assay is T1, CD276 protein in the Membrane Proteome Array (human) (UniProt Q5ZPR3).
T1 sequence (looked up): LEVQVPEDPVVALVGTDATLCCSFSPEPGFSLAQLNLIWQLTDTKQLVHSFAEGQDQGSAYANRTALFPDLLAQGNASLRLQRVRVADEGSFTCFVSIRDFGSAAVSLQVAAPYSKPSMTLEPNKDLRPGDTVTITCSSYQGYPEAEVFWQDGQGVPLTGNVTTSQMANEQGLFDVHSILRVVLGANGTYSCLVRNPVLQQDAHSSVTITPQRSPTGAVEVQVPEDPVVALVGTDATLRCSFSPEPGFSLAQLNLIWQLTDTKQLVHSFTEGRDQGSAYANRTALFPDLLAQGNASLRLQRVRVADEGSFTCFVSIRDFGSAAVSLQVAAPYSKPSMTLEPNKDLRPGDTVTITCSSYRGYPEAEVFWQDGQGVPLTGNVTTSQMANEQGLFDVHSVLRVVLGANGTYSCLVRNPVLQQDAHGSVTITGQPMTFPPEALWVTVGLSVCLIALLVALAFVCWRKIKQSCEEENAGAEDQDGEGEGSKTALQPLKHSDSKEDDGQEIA
Put plainly: Membrane Proteome Array, flow cytometry on unfixed cells. In general terms: A flow cytometer gives signals particle by particle.

B1: CD276T1H1-T1L1 (antibody, V domains shown)
VH: EVQLVESGGGLIQPGGSLRLSCAASGFTFSTYVMSWVRQAPGKGLEWVSSILSGGTSFYADNVKGRFTISRDNSKNTLYLQMNSLRAEDTAVYYCARRYGHDHYYAMDYWGQGTLVTVSS
VL: EIVLTQSPATLSLSPGERATLSCAASSSVSSSYLHWYQQKPGLAPRLLIYSTSNLASGIPDRFSGSGSGTDFTLTISRLEPEDFAVYYCQQYHRSPWTFGGGTKVEIK
notes: Heavy chain variable region cloned into pcDNA3.1-IgG1Fc and light chain variable region into pcDNA3.1-IgKc (IgG1, kappa); also called humanized CD276 antibody (CD276T1H1-T1L1); CD276 humanized antibody
Regarding B1, the binding result is “binds”.
